Test results reported in PubChem BioAssay (NCATS).
Inconclusive means that the source gave no clear call. Such entries were picked first, then a sample of the others. For part of these data: Potencies beside an inconclusive call are fits to weak or partial responses and may not hold up. Activity calls are given as the source filed them. Unless noted, calls follow the shape of the dose curve; as a rule, active = well fitted curve in the direction sought with a large enough effect; inconclusive = small, poorly fitted or top-dose-only effect, or another doubt; inactive = no such curve, though single readings can be large; an effect the other way counts as inactive or inconclusive.

Protein sequences, listed by entry. Tags and fused reporters are not part of them. Lines headed by an entry give the natural chain unless they say otherwise; changes in a name come on top. Residues count along the entry.
UniProt P33261, whole entry, looked up: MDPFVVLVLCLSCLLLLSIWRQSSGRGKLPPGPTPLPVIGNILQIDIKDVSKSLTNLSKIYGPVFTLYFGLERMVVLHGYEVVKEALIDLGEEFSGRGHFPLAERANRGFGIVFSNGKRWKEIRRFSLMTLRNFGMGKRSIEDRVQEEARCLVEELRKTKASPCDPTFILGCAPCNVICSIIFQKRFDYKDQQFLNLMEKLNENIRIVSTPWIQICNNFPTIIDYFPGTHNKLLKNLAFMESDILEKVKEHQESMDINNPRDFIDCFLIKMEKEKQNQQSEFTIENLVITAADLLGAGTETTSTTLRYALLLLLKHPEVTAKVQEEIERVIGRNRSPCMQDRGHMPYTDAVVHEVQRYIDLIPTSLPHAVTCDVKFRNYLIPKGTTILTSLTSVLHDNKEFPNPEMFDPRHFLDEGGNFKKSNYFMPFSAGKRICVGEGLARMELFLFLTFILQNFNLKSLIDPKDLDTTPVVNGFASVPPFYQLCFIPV
UniProt P04150: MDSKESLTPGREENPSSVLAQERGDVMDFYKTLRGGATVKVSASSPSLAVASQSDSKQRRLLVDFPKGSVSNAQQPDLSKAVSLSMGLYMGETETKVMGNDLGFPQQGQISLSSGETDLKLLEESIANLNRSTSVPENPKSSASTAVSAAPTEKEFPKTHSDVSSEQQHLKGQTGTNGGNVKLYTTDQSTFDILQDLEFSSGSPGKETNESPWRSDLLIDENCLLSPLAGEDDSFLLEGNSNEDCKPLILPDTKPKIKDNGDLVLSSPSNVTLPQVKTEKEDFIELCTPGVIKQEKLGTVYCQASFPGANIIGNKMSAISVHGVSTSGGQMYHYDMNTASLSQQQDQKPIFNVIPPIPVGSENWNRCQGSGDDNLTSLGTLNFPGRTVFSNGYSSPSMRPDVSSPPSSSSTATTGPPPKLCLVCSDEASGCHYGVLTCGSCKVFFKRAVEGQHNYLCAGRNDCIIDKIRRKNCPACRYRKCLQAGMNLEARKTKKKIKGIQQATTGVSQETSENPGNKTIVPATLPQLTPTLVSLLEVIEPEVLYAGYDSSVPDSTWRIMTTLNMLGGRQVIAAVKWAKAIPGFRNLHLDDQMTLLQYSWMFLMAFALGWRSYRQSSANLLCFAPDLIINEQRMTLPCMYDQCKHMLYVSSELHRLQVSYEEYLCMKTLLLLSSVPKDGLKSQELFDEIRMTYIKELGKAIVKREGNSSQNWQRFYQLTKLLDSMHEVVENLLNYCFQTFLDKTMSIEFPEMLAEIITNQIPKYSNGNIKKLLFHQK
UniProt Q27686, 2-499 E452W: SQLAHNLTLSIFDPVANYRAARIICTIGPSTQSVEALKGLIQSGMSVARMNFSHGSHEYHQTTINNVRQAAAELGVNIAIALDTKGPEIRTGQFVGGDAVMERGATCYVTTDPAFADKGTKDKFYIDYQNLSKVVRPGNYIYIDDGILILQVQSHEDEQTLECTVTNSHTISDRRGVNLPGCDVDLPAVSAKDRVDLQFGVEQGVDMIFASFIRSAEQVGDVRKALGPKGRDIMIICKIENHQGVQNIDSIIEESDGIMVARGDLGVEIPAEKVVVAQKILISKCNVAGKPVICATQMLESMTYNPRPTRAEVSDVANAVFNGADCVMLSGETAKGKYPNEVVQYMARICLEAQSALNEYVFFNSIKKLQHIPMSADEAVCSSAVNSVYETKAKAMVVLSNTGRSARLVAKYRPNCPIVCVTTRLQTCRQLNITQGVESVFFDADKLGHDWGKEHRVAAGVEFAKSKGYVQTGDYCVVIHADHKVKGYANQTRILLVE
UniProt P14618, whole entry, looked up: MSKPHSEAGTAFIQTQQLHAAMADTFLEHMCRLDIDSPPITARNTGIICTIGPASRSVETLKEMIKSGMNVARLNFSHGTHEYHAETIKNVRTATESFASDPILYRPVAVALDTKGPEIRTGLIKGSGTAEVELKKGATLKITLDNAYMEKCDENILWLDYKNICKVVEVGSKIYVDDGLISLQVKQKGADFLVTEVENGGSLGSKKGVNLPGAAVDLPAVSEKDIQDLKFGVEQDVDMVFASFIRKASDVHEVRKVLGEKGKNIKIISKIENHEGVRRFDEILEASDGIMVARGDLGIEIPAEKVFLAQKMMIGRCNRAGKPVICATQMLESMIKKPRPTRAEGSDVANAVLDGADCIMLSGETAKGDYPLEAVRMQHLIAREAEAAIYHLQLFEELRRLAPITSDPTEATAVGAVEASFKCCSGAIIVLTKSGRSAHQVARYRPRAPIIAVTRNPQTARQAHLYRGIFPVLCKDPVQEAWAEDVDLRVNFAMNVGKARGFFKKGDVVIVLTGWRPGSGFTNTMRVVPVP
UniProt Q9HC16: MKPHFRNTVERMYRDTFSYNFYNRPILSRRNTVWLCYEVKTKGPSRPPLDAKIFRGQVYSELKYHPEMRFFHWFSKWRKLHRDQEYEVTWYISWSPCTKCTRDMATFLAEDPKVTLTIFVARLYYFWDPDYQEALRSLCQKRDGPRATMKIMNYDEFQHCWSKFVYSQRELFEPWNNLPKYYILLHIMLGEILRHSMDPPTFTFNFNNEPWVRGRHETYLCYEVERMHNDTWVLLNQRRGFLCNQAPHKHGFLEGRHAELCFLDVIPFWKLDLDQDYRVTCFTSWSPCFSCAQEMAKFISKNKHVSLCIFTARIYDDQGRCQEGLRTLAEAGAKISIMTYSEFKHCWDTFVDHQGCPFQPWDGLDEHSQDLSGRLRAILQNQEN
UniProt P11712, whole entry, looked up: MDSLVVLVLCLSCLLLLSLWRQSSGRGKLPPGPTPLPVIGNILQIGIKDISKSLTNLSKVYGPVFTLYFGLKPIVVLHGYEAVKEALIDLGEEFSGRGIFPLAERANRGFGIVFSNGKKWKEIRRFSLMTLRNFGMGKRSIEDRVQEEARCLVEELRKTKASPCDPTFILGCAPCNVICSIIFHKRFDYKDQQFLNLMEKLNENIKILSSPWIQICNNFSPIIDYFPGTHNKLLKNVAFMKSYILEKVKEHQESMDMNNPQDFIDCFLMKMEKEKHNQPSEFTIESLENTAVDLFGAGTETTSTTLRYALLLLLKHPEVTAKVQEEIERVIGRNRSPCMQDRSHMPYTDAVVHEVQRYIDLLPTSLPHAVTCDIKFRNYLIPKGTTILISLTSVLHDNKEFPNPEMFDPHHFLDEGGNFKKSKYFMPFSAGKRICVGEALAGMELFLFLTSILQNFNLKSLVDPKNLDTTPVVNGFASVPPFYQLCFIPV

Experiments:
[1] = Stat Signaling Pathway (AID 446; active = well fitted curve in either direction with a large enough effect, not every such curve was filed as active; inconclusive = small, poorly fitted or top-dose-only effect, or another doubt;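 also: ME-180 cervical cancer cells given 40 pM IL-6 alongside compound; SIE-controlled beta-lactamase reporter measured as 460/530 nm FRET emission ratio; % is scaled to controls: 0 for no effect and ±100 for the full control effect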); details: ME-180 SIE beta-lactamase reporter, IL-6 stimulated, 5 h; at 7.69 µM (top of the series) unless noted
Method in brief: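 Emission at 460 and 530 nm (excitation 405 nm) reports SIE-controlled beta-lactamase in ME-180 cells. Cells received compound with 40 pM IL-6 for 5 hrs at 37 C; data scaled between 300 pM IL-6 and 125 nM JAK-inhibitor controls.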

[2] = target: Mitogen-activated protein kinase 10 (Mus musculus) (UniProt Q61831); experiment: JNK3 AlphaScreen Assay (AID 530; active = well fitted curve in either direction with a large enough effect, not every such curve was filed as active; inconclusive = small, poorly fitted or top-dose-only effect, or another doubt;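 also: kinase came from lysate of stimulated human HepG2 cells; potency is read from the fitted curve at half-maximal effect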); details: JNK3 lysate, c-Jun phosphorylation; activity change, negative = inhibition: at 57.1 µM (top of the series)
Method in brief: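 Kinase buffer: 20 mM Tris-HCl pH 7.6, 10 mM MgCl2, 1 mM DTT, 0.1 mM Na3VO4, 0.01% Tween-20; ATP 10 uM. Substrate biotin-GST-cJun(1-79), enzyme from activated HepG2 lysates. Detection by Ser73 phospho-antibody AlphaScreen.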

[3] = qHTS Assay for Lipid Storage Modulators (AID 1519; calls by dose curve; also: % is scaled to controls: 0 for no effect and ±100 for the full control effect); details: Drosophila S3 cells, BODIPY lipid droplet/cell ratio, laser cytometry, cells loaded with oleic acid; activity change, negative = inhibition: at 57.5 µM (top of the series) unless noted
Method in brief: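 Cells seeded at 5,000 per well were treated with compounds over a concentration series and loaded with oleic acid (400 uM, as added). Lipid droplet fluorescence (488 nm excitation, 500-530 nm channel) was read by laser-scanning cytometry and normalized to 20 uM Triacsin C.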

[4] = NFAT Signaling Pathway (AID 444; active = well fitted curve in either direction with a large enough effect, not every such curve was filed as active; inconclusive = small, poorly fitted or top-dose-only effect, or another doubt;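 also: carbachol stimulus at about its EC50 of 1 µM final; % is scaled to controls: 0 for no effect and ±100 for the full control effect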); details: Jurkat NFAT-bla M1, carbachol, beta-lactamase ratio, 5 h; at 7.69 µM (top of the series) unless noted
Method in brief: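 Read-out: CCF4 FRET ratio (460 nm/530 nm) after 1 h RT dye loading, used for %activity and AC50 from titration series. Cells: Jurkat NFAT-β-lactamase/M1 line, treated with compound plus 1 uM carbachol for 5 h, 37 °C.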

[5] = qHTS Assay for Identification of Small Molecule Agonists for Hypoxia Response Element Signaling Pathway (AID 914; active = well fitted activation curve with a large enough effect in the signal ratio, with a control signal flat, not every such curve was filed as active; inconclusive = small, poorly fitted or top-dose-only effect, or effect the other way, or a change in a side signal; the % refers to the signal ratio; also: potency is read from the fitted curve at half-maximal effect; as to activation: % of control where 0% means no effect); details: ME-180 HRE-bla reporter, beta-lactamase ratio, CoCl2, 17 h; activation: active compounds read high
Method in brief: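 ME-180 cells carrying an HRE-driven beta-lactamase reporter were treated with compounds in a titration series plus an EC50 level of CoCl2 for 17 h at 37 degrees Celsius; CCF4 readout as the 460nm/530nm ratio gave AC50 values.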

[6] = target: Cytochrome P450 2C19 (Homo sapiens) (UniProt P33261); experiment: qHTS Assay for Inhibitors and Substrates of Cytochrome P450 2C19 (AID 899); also: potency is read from the fitted curve at half-maximal effect; nearly all actives have a fitted effect of over 60% in size
Method in brief: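 Luminescence readout of luciferin formed from 10uM Luciferin-H EGE (KM level) by 5 nM CYP2C19 in 50mM KPO4. 60 min NADPH-driven reaction at 37C after 10 min compound preincubation; data scaled to 57uM ketoconazole inhibition.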

[7] = target: Glucocorticoid receptor (Homo sapiens) (UniProt P04150); experiment: GR-GFP Redistribution (AID 450;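 active = compounds whose dose series gives a full or clear partial fitted curve of increased nuclear translocation; inconclusive = weak partial curve or effect only at the top dose; inactive = no dose-dependent translocation response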; also: potency is read from the fitted curve at half-maximal effect); details: U2OS GR-GFP nuclear translocation, laser cytometry, 2 h
[8] = qHTS Assay for Identification of Small Molecule Antagonists for NFkB Signaling Pathway (AID 895; active = well fitted inhibition curve with a large enough effect in the signal ratio, with a control signal flat, not every such curve was filed as active; inconclusive = small, poorly fitted or top-dose-only effect, or effect the other way, or a change in a side signal; the % refers to the signal ratio; also: % is scaled to controls: 0 for no effect and ±100 for the full control effect); details: NFkB beta-lactamase reporter cells, FRET ratio 460/530, stimulated with 10 pM TNF alpha; activity change, negative = inhibition: at 38.3 µM (top of the series)
Method in brief: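 Beta-lactamase reporter read-out (460 and 530 nm emission ratio, 405 nm excitation, 2 hrs substrate loading RT) after 5 hr stimulation with 10 pM TNF alpha in compound-treated NFkB-bla ME-180 cells in low-serum medium.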

[9] = qHTS Assay for Identification of Small Molecule Agonists for Thrombopoietin (TPO) Signaling Pathway (AID 917); also: potency is read from the fitted curve at half-maximal effect
Method in brief: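 Quantitative HTS for pathway activators: compounds were pin-transferred onto IL-3-starved Ba/F3 cells expressing human TPO receptor, TPO was added at its EC50 (26 pM final), and after 24 hrs at 37 C reporter luciferase was measured.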

[10] = qHTS Assay for Identification of Small Molecule Antagonists for Thrombopoietin (TPO) Signaling Pathway (AID 918); details: TPO-dependent cell signaling reporter, antagonist mode; activity change, negative = inhibition: at 38.5 µM (top of the series); also: potency is read from the fitted curve at half-maximal effect; nearly all actives have a fitted effect of over 60% in size
Method in brief: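 Antagonist mode at EC50 TPO (26 pM) in IL-3-free medium; murine Ba/F3 cells with human TPO receptor and GPIIb-promoter luciferase, 24 hrs at 37 C before luminescent detection.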

[11] = target: Pyruvate kinase (Leishmania mexicana) (UniProt Q27686); experiment: qHTS Validation Assay for Inhibitors of Leishmania Mexicana Pyruvate Kinase (AID 945); also: potency is read from the fitted curve at half-maximal effect
Method in brief: (§1)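 LmPYK E451W 0.2 nM; 0.5 mM PEP, 0.1 mM ADP, 7 mM MgCl2, 50 mM KCl, imidazole pH 7.2, 0.01% Tween 20, 0.05% BSA; 1 h RT; PKLight luminescence; DMSO-normalized.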

[12] = target: Pyruvate kinase PKM (Homo sapiens) (UniProt P14618); experiment: qHTS Assay for Inhibitors of Human Muscle Pyruvate Kinase (AID 958)
Method in brief: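 ATP production by PKM2 detected via luciferase luminescence after 1 h room-temperature reaction (0.1 nM enzyme, PEP at Km 0.5 mM, ADP 0.1 mM, pH 7.2 imidazole buffer). Inhibition scaled to no-enzyme control; activation referenced to 0.3 nM enzyme wells.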

[13] = target: Pyruvate kinase (Leishmania mexicana) (UniProt Q27686); experiment: qHTS Validation Assay for Activators of Leishmania Mexicana Pyruvate Kinase (AID 959)
Method in brief: as §1

[14] = target: DNA dC->dU-editing enzyme APOBEC-3G (Homo sapiens) (UniProt Q9HC16); experiment: qHTS for inhibitors of Vif-A3G interactions: Validation (AID 588379); also: potency is read from the fitted curve at half-maximal effect
Method in brief: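 Yellow fluorescence (Ex 488, Em 500-530) of Vif-coexpressing HeLa A3G-eYFP cells, scanned by Acumen cytometer, reports blocked A3G degradation. Cells plated at 700/well overnight at 37 deg C before compound addition, then a further overnight compound incubation at 37 deg C.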

[15] = target: Cytochrome P450 2C9 (Homo sapiens) (UniProt P11712); experiment: qHTS Assay for Inhibitors and Substrates of Cytochrome P450 2C9 (AID 883); also: potency is read from the fitted curve at half-maximal effect; nearly all actives have a fitted effect of over 60% in size
Method in brief: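 Luminescent read-out of deoxyluciferin hydroxylation, normalized to 57uM sulphaphenazole (AC100). Reaction: 10nM enzyme, 100uM Luciferin-H (equal to KM), 25mM KPO4, 10 min compound preincubation, then 60 min with NADPH regeneration, both at 37C.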

DFO2036 = experiment: qHTS profiling for inhibitors of Plasmodium falciparum proliferation (AID 504749); also: potency is read from the fitted curve at half-maximal effect; nearly all actives have a fitted effect of over 60% in size; details: P. falciparum in erythrocytes, SYBR Green DNA, 72 h; series mostly up to 28.7 µM
Method in brief: (§2)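 In a 72 h erythrocytic culture (37 C, humidified, 5% CO2) at 2.5% hematocrit and 0.3% starting parasitemia, compounds were tested; SYBR Green I in detergent lysis buffer stained parasite DNA overnight.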

JCK = experiment: as above; details: P. falciparum in erythrocytes, SYBR Green DNA, 72 h; series mostly up to 12.8 µM
Method in brief: as §2

SC27B = experiment: as above; details: P. falciparum in erythrocytes, SYBR Green DNA, 72 h; series mostly up to 28.7 µM
Method in brief: as §2

O=C(c1cnccn1)N1CCC2(CC1)CN(c1cccc(-c3ccccc3)c1)C2
activity, negative = inhibition [1]: inconclusive: -32.8% [inhibitor]
Potency [2]: inconclusive: 15.8 µM [inhibitor, single point]
activity change, negative = inhibition [3]: inconclusive: 1.69%

O=C(c1cnccn1)N1CCC2(CCCN(Cc3nccs3)C2)CC1
activity change, negative = inhibition [4]: inconclusive: -47.5% [inhibitor]
Potency [5]: inconclusive: 3.16 µM [activator, single point]
activity change, negative = inhibition [3]: inconclusive: 4.77%

COc1ccc(CNc2ncncc2-c2ccccc2Cl)c(OC)c1
activity change, negative = inhibition [4]: inactive: -7%
Potency [5]: inconclusive: 5.01 µM [inhibitor, single point]
Potency [3]: inactive

FC(F)(F)c1ccccc1-c1nccc(NCCN2CCOCC2)n1
activity change, negative = inhibition [4]: inconclusive: 224% [activator]
Potency [6]: inconclusive: 6.31 µM [inhibitor, partial curve]
Potency [5]: inconclusive: 3.98 µM [activator, single point]
activity change, negative = inhibition [3]: inconclusive: 7.03%

Cc1nc2cnc(Oc3ccccc3)nc2n(CCC#N)c1=O
activity, negative = inhibition [1]: inactive: -6.56%
activity change, negative = inhibition [3]: inconclusive: 5.91%

COc1cccc2c1C(=O)c1c(O)c3c(c(O)c1C2=O)C[C@](O)(C(=O)CO)C[C@H]3O[C@@H]1C[C@H](N)[C@H](O)[C@H](C)O1
activity change, negative = inhibition [4]: inconclusive: -71.4% [inhibitor] [at 17.2 µM]
activation [5]: inconclusive: -42%
activity change, negative = inhibition [3]: inconclusive: -39.7% [at 25.7 µM]

Fc1cccc(/C=N\N=C/c2cccc(F)c2)c1
Potency [7]: inconclusive: 47.5 µM [partial curve]
Potency [8]: inactive
Potency [9]: active: 3.16 µM
Potency [10]: inconclusive: 3.16 µM [activator, full curve]
Potency [11]: inconclusive: 7.94 µM [inhibitor, full curve]
Potency [12]: active: 2.51 µM
Potency [13]: inactive

Cc1cccc(CNc2ncncc2-c2cccc(NS(C)(=O)=O)c2)c1
Potency [7]: inconclusive: 36 µM [single point]

O=C(N/N=C\c1ccccc1O)c1ccccc1O
Potency [2]: inconclusive: 39.8 µM [inhibitor, partial curve, poor fit]
Potency [14]: inconclusive: 0.75 µM [inhibitor, full curve]

C[C@H]1C[C@@H]2[C@H]3CCC4=CC(=O)C=C[C@@]4(C)[C@@]3(Cl)[C@@H](O)C[C@]2(C)[C@]1(OC(=O)c1ccco1)C(=O)CCl
Potency [15]: inconclusive: 5.01 µM [inhibitor, partial curve, poor fit]
Potency [6]: inconclusive: 7.94 µM [inhibitor, partial curve, poor fit]
Potency (DFO2036): active: 4.47 µM
Potency (JCK): inconclusive: 4.47 µM [inhibitor, single point]
Potency (SC27B): inconclusive: 5.01 µM [inhibitor, single point]
